From PMC12649254
No constants are given. Whether binding was seen depends on the method and setting. In cells and extracts the contact can be indirect. Some binding calls cover weakened binding; strength is not graded here.

The chains behind the UniProt entries cited, without tags or fusion partners.
UniProt Q04207: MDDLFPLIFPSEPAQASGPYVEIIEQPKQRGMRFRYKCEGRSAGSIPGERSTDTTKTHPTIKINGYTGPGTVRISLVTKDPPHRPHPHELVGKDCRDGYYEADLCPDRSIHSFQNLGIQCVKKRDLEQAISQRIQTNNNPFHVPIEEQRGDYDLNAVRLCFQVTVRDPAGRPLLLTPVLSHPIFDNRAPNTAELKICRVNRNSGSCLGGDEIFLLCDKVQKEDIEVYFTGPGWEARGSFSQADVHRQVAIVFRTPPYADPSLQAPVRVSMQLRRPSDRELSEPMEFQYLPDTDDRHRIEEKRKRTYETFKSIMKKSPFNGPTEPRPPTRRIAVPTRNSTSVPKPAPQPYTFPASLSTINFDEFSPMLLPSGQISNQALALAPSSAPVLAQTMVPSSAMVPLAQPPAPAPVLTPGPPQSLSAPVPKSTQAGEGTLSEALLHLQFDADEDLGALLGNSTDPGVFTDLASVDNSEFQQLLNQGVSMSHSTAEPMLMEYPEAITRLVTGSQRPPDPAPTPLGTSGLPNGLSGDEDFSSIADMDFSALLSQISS
UniProt P33242: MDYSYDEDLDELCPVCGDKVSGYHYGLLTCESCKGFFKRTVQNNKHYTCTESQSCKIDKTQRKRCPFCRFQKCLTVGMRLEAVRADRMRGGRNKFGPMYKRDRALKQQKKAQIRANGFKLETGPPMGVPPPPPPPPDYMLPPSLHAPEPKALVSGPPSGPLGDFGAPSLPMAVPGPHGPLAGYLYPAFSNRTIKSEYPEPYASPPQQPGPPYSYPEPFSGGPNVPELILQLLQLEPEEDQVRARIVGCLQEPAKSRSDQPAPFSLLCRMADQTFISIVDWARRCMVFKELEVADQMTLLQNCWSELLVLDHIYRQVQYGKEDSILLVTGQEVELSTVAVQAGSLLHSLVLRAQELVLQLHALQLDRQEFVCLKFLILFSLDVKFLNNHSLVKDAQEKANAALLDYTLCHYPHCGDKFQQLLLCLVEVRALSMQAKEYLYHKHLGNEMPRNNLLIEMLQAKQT

Biological target: NF-κB p65 (mouse (endogenous in TM3)) (UniProt Q04207)
Assay: co-IP; TM3 cell lysates incubated with anti-p65 antibody (1:100) at 4 °C overnight, Protein A/G agarose beads; SF-1 detected by Western blot; normal IgG as negative control; cells with NF-κB activation (PS-NP exposure)

binding: binds
Substance: steroidogenic factor-1 (SF-1) (from UniProt P33242 1-462)
